Assay results reported in PMC9622807.
No constants are given. Whether binding was seen depends on the method and setting. Binding seen in cells or lysates may run through a third protein. Some results given as binding are weak or reduced against the parent protein; the word gives no strength.

Amino acid sequences for entries named in this document (tags omitted).
UniProt Q08211: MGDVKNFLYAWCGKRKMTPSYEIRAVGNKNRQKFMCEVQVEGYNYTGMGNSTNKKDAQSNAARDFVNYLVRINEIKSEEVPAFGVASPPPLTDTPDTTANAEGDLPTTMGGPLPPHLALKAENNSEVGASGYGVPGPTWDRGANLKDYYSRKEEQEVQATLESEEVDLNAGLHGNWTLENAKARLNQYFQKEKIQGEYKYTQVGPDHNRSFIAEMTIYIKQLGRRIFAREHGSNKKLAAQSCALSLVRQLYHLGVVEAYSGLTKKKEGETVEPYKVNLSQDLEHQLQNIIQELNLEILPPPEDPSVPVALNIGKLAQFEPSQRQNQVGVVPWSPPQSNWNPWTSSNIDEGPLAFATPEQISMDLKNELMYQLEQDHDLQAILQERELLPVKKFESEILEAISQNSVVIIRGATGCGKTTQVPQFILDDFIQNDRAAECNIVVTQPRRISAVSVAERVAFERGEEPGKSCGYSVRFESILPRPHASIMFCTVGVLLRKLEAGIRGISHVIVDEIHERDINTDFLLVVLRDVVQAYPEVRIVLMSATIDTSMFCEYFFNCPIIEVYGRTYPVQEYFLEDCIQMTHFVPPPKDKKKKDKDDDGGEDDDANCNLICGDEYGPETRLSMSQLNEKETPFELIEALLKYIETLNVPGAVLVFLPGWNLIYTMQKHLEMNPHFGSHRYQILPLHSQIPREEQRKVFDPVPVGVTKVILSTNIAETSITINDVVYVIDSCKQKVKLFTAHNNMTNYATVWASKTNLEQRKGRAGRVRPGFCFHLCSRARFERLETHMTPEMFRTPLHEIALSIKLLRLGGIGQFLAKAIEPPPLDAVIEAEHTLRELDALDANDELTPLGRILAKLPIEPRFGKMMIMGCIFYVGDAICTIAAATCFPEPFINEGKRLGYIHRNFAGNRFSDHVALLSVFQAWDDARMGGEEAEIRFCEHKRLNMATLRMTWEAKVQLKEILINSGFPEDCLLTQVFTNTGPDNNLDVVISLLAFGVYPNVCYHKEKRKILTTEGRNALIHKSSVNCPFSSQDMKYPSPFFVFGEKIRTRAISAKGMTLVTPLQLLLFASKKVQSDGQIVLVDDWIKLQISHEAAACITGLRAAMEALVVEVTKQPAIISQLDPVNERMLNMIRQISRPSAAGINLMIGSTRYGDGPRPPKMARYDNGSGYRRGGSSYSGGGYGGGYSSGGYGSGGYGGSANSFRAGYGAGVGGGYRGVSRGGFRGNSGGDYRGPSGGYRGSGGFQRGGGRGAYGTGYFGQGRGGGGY

Target: DExH-Box Helicase 9 (DHX9) (human (endogenous in human TECs)) (UniProt Q08211)
Experiment: co-IP; immunoprecipitation (anti-DHX9 is listed for immunoprecipitation) and western blot, Supplementary Fig. 2j; cells and treatment not shown

B1: p150 isoform of ADAR1 (protein, UniProt P55265-1 1-1226)
chain: MNPRQGYSLSGYYTHPFQGYEHRQLRYQQPGPGSSPSSFLLKQIEFLKGQLPEAPVIGKQTPSLPPSLPGLRPRFPVLLASSTRGRQVDIRGVPRGVHLRSQGLQRGFQHPSPRGRSLPQRGVDCLSSHFQELSIYQDQEQRILKFLEELGEGKATTAHDLSGKLGTPKKEINRVLYSLAKKGKLQKEAGTPPLWKIAVSTQAWNQHSGVVRPDGHSQGAPNSDPSLEPEDRNSTSVSEDLLEPFIAVSAQAWNQHSGVVRPDSHSQGSPNSDPGLEPEDSNSTSALEDPLEFLDMAEIKEKICDYLFNVSDSSALNLAKNIGLTKARDINAVLIDMERQGDVYRQGTTPPIWHLTDKKRERMQIKRNTNSVPETAPAAIPETKRNAEFLTCNIPTSNASNNMVTTEKVENGQEPVIKLENRQEARPEPARLKPPVHYNGPSKAGYVDFENGQWATDDIPDDLNSIRAAPGEFRAIMEMPSFYSHGLPRCSPYKKLTECQLKNPISGLLEYAQFASQTCEFNMIEQSGPPHEPRFKFQVVINGREFPPAEAGSKKVAKQDAAMKAMTILLEEAKAKDSGKSEESSHYSTEKESEKTAESQTPTPSATSFFSGKSPVTTLLECMHKLGNSCEFRLLSKEGPAHEPKFQYCVAVGAQTFPSVSAPSKKVAKQMAAEEAMKALHGEATNSMASDNQPEGMISESLDNLESMMPNKVRKIGELVRYLNTNPVGGLLEYARSHGFAAEFKLVDQSGPPHEPKFVYQAKVGGRWFPAVCAHSKKQGKQEAADAALRVLIGENEKAERMGFTEVTPVTGASLRRTMLLLSRSPEAQPKTLPLTGSTFHDQIAMLSHRCFNTLTNSFQPSLLGRKILAAIIMKKDSEDMGVVVSLGTGNRCVKGDSLSLKGETVNDCHAEIISRRGFIRFLYSELMKYNSQTAKDSIFEPAKGGEKLQIKKTVSFHLYISTAPCGDGALFDKSCSDRAMESTESRHYPVFENPKQGKLRTKVENGEGTIPVESSDIVPTWDGIRLGERLRTMSCSDKILRWNVLGLQGALLTHFLQPIYLKSVTLGYLFSQGHLTRAICCRVTRDGSAFEDGLRHPFIVNHPKVGRVSIYDSKRQSGKTKETSVNWCLADGYDLEILDGTRGTVDGPRNELSRVSKKNIFLLFKKLCSFRYRRDLLRLSYGEAKKAARDYETAKNYFKKGLKDMGYGNWISKPQEEKNFYLCPV
  binding: binds
